This assay concerns the target GFP-SERPINE1 (serpin family E member 1 tagged with GFP) (UniProt P05121). Description: affinity purification with mass spectrometry; GFP-SERPINE1 or GFP-Mock plasmids transfected into 293T cells; whole cell lysates immunoprecipitated with anti-GFP antibody, Protein A/G magnetic beads, washed with PBST (0.5% Triton X-100); complexes analysed by LC-MS/MS.

Chains of the proteins cited; added tags and fusions are not shown. Residues count along the entry.
UniProt P05121, residues 24-402: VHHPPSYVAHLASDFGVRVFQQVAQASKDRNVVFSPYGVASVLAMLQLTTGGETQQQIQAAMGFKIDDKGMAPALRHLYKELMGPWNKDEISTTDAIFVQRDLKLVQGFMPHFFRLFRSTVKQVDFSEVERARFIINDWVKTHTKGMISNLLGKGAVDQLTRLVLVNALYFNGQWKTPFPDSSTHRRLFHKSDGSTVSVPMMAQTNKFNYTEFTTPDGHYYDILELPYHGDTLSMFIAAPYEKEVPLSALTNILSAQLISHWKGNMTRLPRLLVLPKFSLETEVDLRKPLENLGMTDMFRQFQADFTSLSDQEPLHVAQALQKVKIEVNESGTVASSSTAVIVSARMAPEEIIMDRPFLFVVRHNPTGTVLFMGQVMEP
UniProt Q04206: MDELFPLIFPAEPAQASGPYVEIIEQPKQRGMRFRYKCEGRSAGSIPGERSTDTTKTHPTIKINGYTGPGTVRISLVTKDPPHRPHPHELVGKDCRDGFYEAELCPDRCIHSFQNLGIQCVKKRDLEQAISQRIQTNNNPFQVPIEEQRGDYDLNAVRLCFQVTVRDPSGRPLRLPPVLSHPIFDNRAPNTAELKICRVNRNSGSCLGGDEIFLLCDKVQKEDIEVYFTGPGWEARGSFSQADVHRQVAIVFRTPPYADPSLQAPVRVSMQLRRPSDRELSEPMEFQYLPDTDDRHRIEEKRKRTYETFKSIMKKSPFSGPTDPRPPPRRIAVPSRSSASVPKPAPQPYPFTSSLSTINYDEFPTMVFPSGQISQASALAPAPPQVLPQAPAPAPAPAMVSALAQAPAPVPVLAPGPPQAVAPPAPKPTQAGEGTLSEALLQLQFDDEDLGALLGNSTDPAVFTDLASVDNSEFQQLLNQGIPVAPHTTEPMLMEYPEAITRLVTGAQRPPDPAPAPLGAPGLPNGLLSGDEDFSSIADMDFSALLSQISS

Results are given in words; binding and its absence hold for the method and conditions named. In cells and extracts the contact can be indirect. Here binding means that the protein was enriched with, or labelled near, the bait; the list need not be complete.

On to “NF-κB p65, endogenous in 293T cells (from UniProt Q04206 1-551)”, for which the binding result is listed as “binds”.

Source of the values: PMC10993572.
